# Library screen at single concentrations

Amino acid sequences for entries named in this document (tags omitted). Residues count along the entry.
UniProt P9WFT3, whole entry: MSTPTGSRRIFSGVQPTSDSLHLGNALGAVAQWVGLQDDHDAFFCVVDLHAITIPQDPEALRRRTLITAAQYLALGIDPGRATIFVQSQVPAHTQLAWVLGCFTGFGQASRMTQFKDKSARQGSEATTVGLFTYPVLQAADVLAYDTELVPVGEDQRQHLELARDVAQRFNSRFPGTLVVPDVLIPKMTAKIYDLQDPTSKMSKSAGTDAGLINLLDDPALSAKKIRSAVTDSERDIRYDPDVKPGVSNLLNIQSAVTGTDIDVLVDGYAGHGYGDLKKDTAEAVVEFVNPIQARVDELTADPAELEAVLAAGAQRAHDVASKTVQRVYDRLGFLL
UniProt P9WPC5, whole entry: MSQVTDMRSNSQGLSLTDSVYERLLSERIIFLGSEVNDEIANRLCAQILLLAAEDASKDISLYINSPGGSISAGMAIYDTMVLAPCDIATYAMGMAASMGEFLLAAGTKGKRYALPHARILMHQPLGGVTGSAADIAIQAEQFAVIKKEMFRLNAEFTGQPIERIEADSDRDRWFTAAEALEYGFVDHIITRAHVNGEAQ
UniProt P9WPC3, whole entry partner: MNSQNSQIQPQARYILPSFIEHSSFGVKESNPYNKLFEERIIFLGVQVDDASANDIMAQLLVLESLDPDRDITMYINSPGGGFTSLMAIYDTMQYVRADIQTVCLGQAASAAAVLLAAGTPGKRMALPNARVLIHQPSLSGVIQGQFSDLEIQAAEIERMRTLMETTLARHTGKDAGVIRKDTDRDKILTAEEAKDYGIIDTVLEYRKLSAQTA
UniProt I6X8D2, whole entry: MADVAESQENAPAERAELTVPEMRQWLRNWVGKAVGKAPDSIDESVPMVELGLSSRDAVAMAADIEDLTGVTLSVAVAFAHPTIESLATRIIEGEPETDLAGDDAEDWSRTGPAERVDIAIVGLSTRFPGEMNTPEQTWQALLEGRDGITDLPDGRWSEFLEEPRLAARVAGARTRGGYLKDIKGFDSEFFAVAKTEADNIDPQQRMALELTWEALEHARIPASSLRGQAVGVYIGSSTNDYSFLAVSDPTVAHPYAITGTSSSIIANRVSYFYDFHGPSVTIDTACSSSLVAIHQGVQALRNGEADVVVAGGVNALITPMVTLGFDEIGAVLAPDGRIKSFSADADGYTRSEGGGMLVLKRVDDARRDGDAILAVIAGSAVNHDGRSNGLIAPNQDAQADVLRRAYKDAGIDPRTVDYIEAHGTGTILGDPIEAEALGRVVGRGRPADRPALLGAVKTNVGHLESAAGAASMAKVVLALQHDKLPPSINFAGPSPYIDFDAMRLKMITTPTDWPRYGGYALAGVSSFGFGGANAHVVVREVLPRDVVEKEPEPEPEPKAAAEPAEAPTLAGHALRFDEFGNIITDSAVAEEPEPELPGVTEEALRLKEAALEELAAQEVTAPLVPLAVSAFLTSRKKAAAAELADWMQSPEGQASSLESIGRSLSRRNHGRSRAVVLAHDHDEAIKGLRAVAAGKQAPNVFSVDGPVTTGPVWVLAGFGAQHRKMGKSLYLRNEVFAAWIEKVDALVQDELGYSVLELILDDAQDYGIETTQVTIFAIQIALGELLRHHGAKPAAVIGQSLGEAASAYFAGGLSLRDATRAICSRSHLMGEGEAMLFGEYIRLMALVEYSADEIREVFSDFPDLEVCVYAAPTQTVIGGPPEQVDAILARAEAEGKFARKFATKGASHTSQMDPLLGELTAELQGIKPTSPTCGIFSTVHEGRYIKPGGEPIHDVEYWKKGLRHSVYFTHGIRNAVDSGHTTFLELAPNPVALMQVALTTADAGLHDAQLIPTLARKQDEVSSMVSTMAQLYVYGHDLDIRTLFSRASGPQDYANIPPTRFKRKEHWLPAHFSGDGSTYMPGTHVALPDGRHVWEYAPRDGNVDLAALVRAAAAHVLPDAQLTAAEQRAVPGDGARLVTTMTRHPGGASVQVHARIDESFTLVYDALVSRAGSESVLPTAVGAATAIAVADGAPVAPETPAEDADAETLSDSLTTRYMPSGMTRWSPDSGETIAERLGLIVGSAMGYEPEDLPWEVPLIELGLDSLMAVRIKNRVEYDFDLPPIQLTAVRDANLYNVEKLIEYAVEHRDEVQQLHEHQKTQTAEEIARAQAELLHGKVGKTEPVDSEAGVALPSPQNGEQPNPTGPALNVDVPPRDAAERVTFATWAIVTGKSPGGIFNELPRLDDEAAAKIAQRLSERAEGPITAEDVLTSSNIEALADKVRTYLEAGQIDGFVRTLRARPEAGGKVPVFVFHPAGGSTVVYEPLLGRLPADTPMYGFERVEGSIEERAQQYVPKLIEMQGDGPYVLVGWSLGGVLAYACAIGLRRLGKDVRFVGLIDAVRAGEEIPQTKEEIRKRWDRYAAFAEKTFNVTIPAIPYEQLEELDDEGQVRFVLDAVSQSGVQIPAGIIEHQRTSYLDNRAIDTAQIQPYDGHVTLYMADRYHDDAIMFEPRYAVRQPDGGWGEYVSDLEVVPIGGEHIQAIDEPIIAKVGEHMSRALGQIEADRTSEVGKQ
UniProt Q8IDJ8, 1-583: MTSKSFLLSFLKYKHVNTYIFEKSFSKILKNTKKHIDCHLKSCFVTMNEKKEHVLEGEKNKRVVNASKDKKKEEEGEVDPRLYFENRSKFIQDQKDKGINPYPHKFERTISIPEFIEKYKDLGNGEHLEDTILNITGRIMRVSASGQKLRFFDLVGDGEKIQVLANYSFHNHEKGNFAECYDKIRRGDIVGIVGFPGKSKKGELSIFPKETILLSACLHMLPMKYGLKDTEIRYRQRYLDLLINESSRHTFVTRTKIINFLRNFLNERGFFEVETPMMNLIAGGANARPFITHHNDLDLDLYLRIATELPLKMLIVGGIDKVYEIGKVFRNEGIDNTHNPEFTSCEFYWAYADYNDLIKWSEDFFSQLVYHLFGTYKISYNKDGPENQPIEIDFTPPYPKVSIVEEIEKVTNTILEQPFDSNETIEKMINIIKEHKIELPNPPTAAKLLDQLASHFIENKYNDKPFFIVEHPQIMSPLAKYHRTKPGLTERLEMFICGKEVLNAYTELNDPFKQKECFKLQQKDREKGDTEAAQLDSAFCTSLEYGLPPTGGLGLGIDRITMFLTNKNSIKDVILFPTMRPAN

Measurements from “University of Dundee, Small-Polar-MMV Screening Library” (2021), ChEMBL document CHEMBL3988442.

Values are the deposited “Percent Effect”, in %.
The record does not define 0% and 100%; most values in the screen are far below 50% and negative numbers occur (in some assays of this library far below -100).
This is an unselected part of the compounds tested.

MtTrpRS: 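Tryptophan-tRNA ligase, Mycobacterium tuberculosis (UniProt P9WFT3). Enzyme assay of tryptophanyl-tRNA synthetase; the read-out is not stated. Compounds at 10 µM. Direction is not recorded; retested compounds ran higher, which suggests that high means inhibition. About 65,000 compounds were tested under these conditions; 0.098% (about 64) showed 50% or more at least once.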
ClpP1P2: 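Protease assay of ClpP1P2, read by the AMC dye that it sets free. Target: ClpP1P2, Mycobacterium tuberculosis (UniProt P9WPC5 and UniProt P9WPC3). Tested at 50 µM. Direction is inferred from only a few compounds that gave an IC50; most scored high, so higher reads as stronger inhibition. Most other retested compounds had strongly negative values. About 69,000 compounds were tested under these conditions; 0.015% (about 10) showed 50% or more at least once.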
Pks13 thioesterase: 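Enzyme assay of the thioesterase domain of polyketide synthase 13; the read-out is not stated. Target: Polyketide synthase Pks13, Mycobacterium tuberculosis (UniProt I6X8D2). Compounds at 30 µM. The record gives no direction; the compounds picked for IC50 retests had high values, so higher reads as stronger inhibition. Size under these conditions: about 67,000 compounds, about 300 of them at 50% or above in at least one test.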
PfKRS1: 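Enzyme assay of the cytosolic lysyl-tRNA synthetase in 384-well plates, read by luminescence. Target: Lysine-tRNA ligase, Plasmodium falciparum 3D7 (UniProt Q8IDJ8). Tested at 30 µM. Direction is inferred from only a few compounds that gave an IC50; most scored high, so higher reads as stronger inhibition. Size under these conditions: about 69,000 compounds, about 49 of them at 50% or above in at least one test.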

* CC(C)n1nc2c(cc1=O)CN(CCOc1ccc(C#N)cc1)CC2 : MtTrpRS: 2.034%; ClpP1P2: -10.38%; Pks13 thioesterase: 17.77%; PfKRS1: 4.768%
* O=C(NCc1ccc(N2CCSCC2)cc1)NCc1cc[nH]n1 : MtTrpRS: -3.202%; ClpP1P2: -0.6901%; Pks13 thioesterase: -3.408%; PfKRS1: 4.946%
* CC(C)c1ncncc1C(=O)NCCN1CCCS1(=O)=O : MtTrpRS: -1.856%; ClpP1P2: 0.636%; Pks13 thioesterase: -10.84%; PfKRS1: 1.524%
* CC(=O)N1CCC2(CCN(C(=O)c3ccc(C)c(C(F)(F)F)c3)CC2)C1 : MtTrpRS: 5.849%; ClpP1P2: 7.638%; Pks13 thioesterase: -23.72%; PfKRS1: -3.301%
* c1cc2n(n1)CC(CNCc1ccc(OC3CCCC3)nc1)CN2 (stereo unspecified) : MtTrpRS: 0.5842%; ClpP1P2: -8.857%; Pks13 thioesterase: -1.845%; PfKRS1: 1.031%
* CCCC(=O)N1CCN(Cc2cc(-c3ccncc3)nn2C)CC1 : ClpP1P2: 5.609%; Pks13 thioesterase: -0.4091%; PfKRS1: 9.369%
* Cc1ccc(S(=O)(=O)N(C)CC(N)=O)c(Cl)c1 : MtTrpRS: -0.2694%; ClpP1P2: -0.3657%; Pks13 thioesterase: -22.45%; PfKRS1: 4.873%
* NC(=O)NC(=O)CCSCc1coc(-c2cccc(Cl)c2)n1 : MtTrpRS: 1.468%; ClpP1P2: 19.52%; Pks13 thioesterase: -2.357%; PfKRS1: 1.578%
* CCc1nc2c(N3CCC4(CC3)CNC(=O)C4)ncnc2o1 : MtTrpRS: -3.367%; ClpP1P2: 4.53%; Pks13 thioesterase: -19.07%; PfKRS1: 2.589%
* COc1cccc(CNC(=O)CC2CSc3ncc(C)c(=O)n32)c1 (stereo unspecified) : MtTrpRS: -2.756%; ClpP1P2: -1.386%; Pks13 thioesterase: -4.003%; PfKRS1: -1.498%
* COCc1nc(N(C)C)ncc1C(=O)Nc1ccn(C)n1 : MtTrpRS: 2.814%; ClpP1P2: -1.198%; Pks13 thioesterase: -15.04%; PfKRS1: 5.236%
* CN1CCCCc2c1nc1c(c2N)CCC1.O=C(O)c1cc([N+](=O)[O-])ccc1Cl : MtTrpRS: -0.3079%; ClpP1P2: -6.877%; Pks13 thioesterase: 6.443%; PfKRS1: -0.5802%
* Cc1nn(C)c2c(=O)n(CC(=O)NCCC(C)C)ccc12 : MtTrpRS: -2.022%; ClpP1P2: -20.93%; Pks13 thioesterase: -2.941%; PfKRS1: -8.158%
* c1coc(CN2Cc3nccn3CC(Cn3cncn3)C2)c1 (stereo unspecified) : MtTrpRS: 2.22%; ClpP1P2: -9.862%; Pks13 thioesterase: -5.173%; PfKRS1: 0.3773%
* COCCNC(=O)CSCc1nc(O)c2cc(C(C)C)sc2n1 : MtTrpRS: -2.971%; ClpP1P2: 4.843%; Pks13 thioesterase: -28.14%; PfKRS1: 1.064%
* CN1CCCC1CNC(=O)CCCOc1ccc(I)cc1 (stereo unspecified) : MtTrpRS: -4.206%; ClpP1P2: -26.48%; Pks13 thioesterase: -11.91%; PfKRS1: 0.5685%
* CN(C(=O)c1ccon1)[C@@H]1CCC[C@@H](Oc2ccccc2)[C@@H]1O : MtTrpRS: -4.116%; ClpP1P2: -2.993%; Pks13 thioesterase: -4.246%; PfKRS1: 3.541%
* CC(C)C(C)N(C)C(=O)COc1ccccc1C#N (stereo unspecified) : MtTrpRS: -4.032%; ClpP1P2: 19.49%; Pks13 thioesterase: 35.16%; PfKRS1: -1.569%
* Cc1ncsc1CN1CC(C)(C2CC2)CC1=O (stereo unspecified) : MtTrpRS: 1.314%; ClpP1P2: -16.3%; Pks13 thioesterase: -11.79%; PfKRS1: -0.4363%
* Cn1ccnc1CCNC(=O)NCCC1CCCCO1 (stereo unspecified) : MtTrpRS: 2.683%; ClpP1P2: -1.857%; Pks13 thioesterase: -32.55%; PfKRS1: -0.07454%
* COCc1ccccc1C(=O)N1CCC(CNC(=O)OC(C)(C)C)C1 (stereo unspecified) : MtTrpRS: -0.1874%; ClpP1P2: -3.416%; Pks13 thioesterase: -23.62%; PfKRS1: -5.537%
* NC(=O)C1CCN(C(=O)Cc2cnc(-c3c(Cl)cccc3Cl)s2)CC1 : MtTrpRS: -0.8414%; ClpP1P2: -10.36%; Pks13 thioesterase: -8.381%; PfKRS1: -1.258%
* CN(C)CCn1c(=O)oc2ccc(NC(=O)c3cc(Cl)c[nH]3)cc21 : MtTrpRS: -1.243%; ClpP1P2: -16.5%; Pks13 thioesterase: 18.73%; PfKRS1: 3.092%
* CNc1nc(CNC(=O)Nc2cccc(C(C)OC)c2)cs1 (stereo unspecified) : MtTrpRS: 0.6773%; ClpP1P2: -19.22%; Pks13 thioesterase: -23.75%; PfKRS1: -0.006539%
* CSc1ccc(C(=O)N2CCOCC2c2c(C)n[nH]c2C)o1 (stereo unspecified) : MtTrpRS: 29.01%; ClpP1P2: -3.256%; Pks13 thioesterase: -35.23%; PfKRS1: -0.4618%

The first 2 entries again:

| SMILES | MtTrpRS | ClpP1P2 | Pks13 thioesterase | PfKRS1 |
|---|---|---|---|---|
| `CC(C)n1nc2c(cc1=O)CN(CCOc1ccc(C#N)cc1)CC2` | 2.034% | -10.38% | 17.77% | 4.768% |
| `O=C(NCc1ccc(N2CCSCC2)cc1)NCc1cc[nH]n1` | -3.202% | -0.6901% | -3.408% | 4.946% |